In patent publication US9060517B2, “Nitrogenated heterocyclic compound and agricultural or horticultural fungicide” (Nippon Soda Co., Ltd., priority 2011, dated 2015):
Some results were stated once for a whole list of compounds, not compound by compound.

Experiments:
[1] = tested on: apple scab pathogen (Venturia inaequalis); experiment: Apple scab control test (100 ppm spray on apple seedlings); assay type: in vivo; details: apple seedlings (Ralls Janet), emulsion sprayed at 100 ppm, inoculated with Venturia inaequalis, 2 weeks
Method: Ralls Janet, leaf stage: 3 to 4) cultivated in unglazed pots and allowed to air-dry at room temperature. Subsequently, the seedlings were inoculated with conidiospores of apple scab pathogen (Venturia inaequalis) followed by holding for 2 weeks indoors at 20° C. and high humidity using a 12 hour light/dark cycle. The appearance of lesions on the leaves was compared with untreated seedlings to determine control effects.

[2] = tested on: cucumber gray mold pathogen (Botrytis cinerea); experiment: Cucumber gray mold control test; assay type: in vivo; details: cucumber seedlings (Sagami Hanjiro), emulsion sprayed at 100 ppm, 4 days
Method: Sagami Hanjiro, leaf stage: cotyledon) cultivated in unglazed pots, and allowed to air-dry at room temperature. Subsequently, the seedlings were drip-inoculated with conidiospore suspensions of cucumber gray mold pathogen (Botrytis cinerea) followed by holding for 4 days in a dark room at 20° C. and high humidity. The appearance of lesions on the leaves was compared with untreated seedlings to determine control effects.

Compound: CC(C)=CCOC(C)c1ncccc1Oc1cc2cccc(F)c2nc1C (racemic) [a-37]
- control value [1]: ≥ 75%
- control value [2]: ≥ 75%

Compound: Cc1nc2c(F)cccc2cc1Oc1ccc[n+]([O-])c1C(C)OCc1ccccc1 (racemic) [a-39]
- control value [1]: ≥ 75%

Compound: CCC(C)(O)c1ncccc1Oc1cc2cccc(F)c2nc1C (racemic) [a-40]
- control value [1]: ≥ 75%
- control value [2]: ≥ 75%

Compound: CCC(O)C(C)(C)c1ncccc1Oc1cnc2c(F)cccc2c1 (racemic) [a-43]
- control value [1]: ≥ 75%
- control value [2]: ≥ 75%

Compound: CC(C#N)(c1ccccc1)c1ncccc1Oc1cnc2c(F)cccc2c1 (racemic) [a-47]
- control value [1]: ≥ 75%

Compound: CCOC(=O)C(C)(CC)c1ncccc1Oc1cnc2c(F)cccc2c1 (racemic) [a-48]
- control value [1]: ≥ 75%
- control value [2]: ≥ 75%

Compound: CCOC(=O)C(C)(c1ccccc1)c1ncccc1Oc1cnc2c(F)cccc2c1 (racemic) [a-49]
- control value [1]: ≥ 75%
- control value [2]: ≥ 75%

Compound: CCC(C)(OC)c1ncccc1Oc1cc2cccc(F)c2nc1C (racemic) [a-50]
- control value [1]: ≥ 75%
- control value [2]: ≥ 75%

Compound: Cc1nc2c(F)cccc2cc1Oc1cccnc1C(C)(O[Si](C)(C)C)C(F)(F)F (racemic) [a-78]
- control value [1]: ≥ 75%
- control value [2]: ≥ 75%

Compound: Cc1nc2c(F)cccc2cc1Oc1cccnc1C(C)(O)C(F)(F)F (racemic) [a-79]
- control value [1]: ≥ 75%
- control value [2]: ≥ 75%

Compound: CCC(C)(O)c1ncccc1Oc1cc2ccc(F)c(F)c2nc1C (racemic) [a-82]
- control value [1]: ≥ 75%
- control value [2]: ≥ 75%

Compound: CCC(C)(OC)c1ncccc1Oc1cc2ccc(F)c(F)c2nc1C (racemic) [a-83]
- control value [1]: ≥ 75%
- control value [2]: ≥ 75%

Compound: CC(C)(C)c1ccccc1Oc1cnc2ccccc2n1 [Compound 1-1]
- control value [1]: ≥ 75%

Compound: COC(C)c1c(Cl)cccc1Oc1cnc2ccccc2n1 (centres unmarked) [Compound 1-9]
- control value [1]: ≥ 75%
- control value [2]: ≥ 75%

Compound: COC(C)(C)c1c(F)cccc1Oc1cnc2c(F)c(F)ccc2n1 [Compound 1-12]
- control value [1]: ≥ 75%
- control value [2]: ≥ 75%

Compound: COC(C)(C)c1c(F)cccc1Oc1nc2ccc(F)c(F)c2nc1C [Compound 1-13]
- control value [2]: ≥ 75%

Compound: CC(=O)C(F)(F)c1ncccc1Oc1nc2cccc(F)c2nc1C [Compound 1-16]
- control value [2]: ≥ 75%

Compound: Cc1nc2c(F)cccc2nc1Oc1cccnc1C(F)(F)C(C)(C)O [Compound 1-17]
- control value [1]: ≥ 75%
- control value [2]: ≥ 75%

Compound: CC(C)(C)OC(=O)C(C)(C)c1ccccc1Oc1cnc2c(F)cccc2n1 [Compound 1-18]
- control value [1]: ≥ 75%
- control value [2]: ≥ 75%

Compound: CC(C)OC(=O)C(C)(C)c1ccccc1Oc1cnc2c(F)cccc2n1 [Compound 1-19]
- control value [1]: ≥ 75%
- control value [2]: ≥ 75%

Compound: CCOC(=O)C(C)(C)c1ncccc1Oc1cnc2c(F)cccc2n1 [Compound 1-21]
- control value [1]: ≥ 75%
- control value [2]: ≥ 75%

Compound: CC(C)(C(=O)OC1CCCC1)c1ccccc1Oc1cnc2c(F)cccc2n1 [Compound 1-22]
- control value [1]: ≥ 75%
- control value [2]: ≥ 75%

Compound: Cc1nc2c(F)cccc2nc1Oc1ccccc1C(C)(C)C(=O)OC(C)C [Compound 1-23]
- control value [1]: ≥ 75%
- control value [2]: ≥ 75%

Compound: Cc1nc2c(F)c(F)ccc2nc1Oc1ccccc1C(C)(C)C(=O)OC(C)C [Compound 1-25]
- control value [1]: ≥ 75%
- control value [2]: ≥ 75%

Compound: COC(C)(C)c1ncccc1Oc1cnc2c(F)c(F)ccc2n1 [Compound 1-28]
- control value [1]: ≥ 75%
- control value [2]: ≥ 75%

Compound: COC(C)(C)c1c(Oc2nc3cccc(F)c3nc2C)ccc[n+]1[O-] [Compound 1-32]
- control value [1]: ≥ 75%

Compound: CCCOC(C)(C)c1ncccc1Oc1nc2cccc(F)c2nc1C [Compound 1-33]
- control value [1]: ≥ 75%
- control value [2]: ≥ 75%

Compound: CC(C)OC(=O)C(C)(C)c1c(F)cccc1Oc1cnc2c(F)cccc2n1 [Compound 1-34]
- control value [1]: ≥ 75%
- control value [2]: ≥ 75%

Compound: CC(C)OC(=O)C(C)(C)c1ncccc1Oc1cnc2ccccc2n1 [Compound 1-36]
- control value [1]: ≥ 75%

Compound: CC(C)OC(=O)C(C)(C)c1ncccc1Oc1cnc2c(F)cccc2n1 [Compound 1-37]
- control value [1]: ≥ 75%
- control value [2]: ≥ 75%

Compound: COC(=O)C(C)(C)c1ncccc1Oc1cnc2c(F)c(F)ccc2n1 [Compound 1-39]
- control value [1]: ≥ 75%
- control value [2]: ≥ 75%

Compound: CCC(C)(OC)c1ncccc1Oc1nc2ccc(F)c(F)c2nc1C (centres unmarked) [Compound 1-40]
- control value [1]: ≥ 75%
- control value [2]: ≥ 75%

Compound: CCC(C)(C#N)c1ncccc1Oc1cnc2c(F)c(F)ccc2n1 (centres unmarked) [Compound 1-41]
- control value [1]: ≥ 75%
- control value [2]: ≥ 75%

Compound: CCC(C)(C(=O)OC(C)C)c1ncccc1Oc1cnc2c(F)c(F)ccc2n1 (centres unmarked) [Compound 1-42]
- control value [1]: ≥ 75%
- control value [2]: ≥ 75%

Compound: CCC(CC)(OC)c1ncccc1Oc1cnc2c(F)c(F)ccc2n1 [Compound 1-43]
- control value [1]: ≥ 75%
- control value [2]: ≥ 75%

Compound: CCC(CC)(OC)c1ncccc1Oc1nc2ccc(F)c(F)c2nc1C [Compound 1-44]
- control value [1]: ≥ 75%
- control value [2]: ≥ 75%

Compound: C=CCC(C)(OC)c1ncccc1Oc1nc2ccc(F)c(F)c2nc1C (centres unmarked) [Compound 1-45]
- control value [1]: ≥ 75%
- control value [2]: ≥ 75%

Compound: Cc1nc2cc(F)ccc2nc1Oc1cccnc1C(C)(C)C(=O)OC(C)C [Compound 1-46]
- control value [1]: ≥ 75%
- control value [2]: ≥ 75%

Compound: CCC(C)(OC)c1ncccc1Oc1nc2ccc(F)cc2nc1C (centres unmarked) [Compound 1-47]
- control value [1]: ≥ 75%
- control value [2]: ≥ 75%

Compound: Cc1nc2c(F)c(F)ccc2nc1Oc1cccnc1C(C)(C)C(=O)OC(C)C [Compound 1-48]
- control value [1]: ≥ 75%
- control value [2]: ≥ 75%

Compound: CCCC(C)(OC)c1ncccc1Oc1nc2ccc(F)c(F)c2nc1C (centres unmarked) [Compound 1-49]
- control value [1]: ≥ 75%
- control value [2]: ≥ 75%

Compound: CCC(C)(OC)c1ncccc1Oc1nc2cccc(F)c2nc1C (centres unmarked) [Compound 1-50]
- control value [1]: ≥ 75%
- control value [2]: ≥ 75%

Compound: CC(C)OC(=O)C1(c2ncccc2Oc2cnc3c(F)c(F)ccc3n2)CC1 [Compound 1-52]
- control value [1]: ≥ 75%
- control value [2]: ≥ 75%

Compound: Cc1nc2c(F)c(F)ccc2nc1Oc1cccnc1C1(C(=O)OC(C)C)CC1 [Compound 1-53]
- control value [1]: ≥ 75%
- control value [2]: ≥ 75%

Compound: C=CCC(C)(OC)c1ncccc1Oc1nc2ccc(F)cc2nc1C (centres unmarked) [Compound 1-54]
- control value [1]: ≥ 75%
- control value [2]: ≥ 75%

Compound: C=CCC(C)(OC)c1ncccc1Oc1cnc2c(F)c(F)ccc2n1 (centres unmarked) [Compound 1-55]
- control value [1]: ≥ 75%
- control value [2]: ≥ 75%

Compound: C=CCOC(C)(C)c1ncccc1Oc1nc2ccc(F)c(F)c2nc1C [Compound 1-56]
- control value [1]: ≥ 75%
- control value [2]: ≥ 75%

Compound: CCCCN(CC)C(=O)C(C)(C)c1ncccc1Oc1cnc2c(F)c(F)ccc2n1 [Compound 1-58]
- control value [1]: ≥ 75%

Compound: CCCC(C)(OC)c1ncccc1Oc1nc2ccc(F)cc2nc1C (centres unmarked) [Compound 1-59]
- control value [1]: ≥ 75%
- control value [2]: ≥ 75%

Compound: COC(C)(C)c1ncccc1Oc1nc2ccc(F)cc2nc1C [Compound 1-60]
- control value [1]: ≥ 75%
- control value [2]: ≥ 75%

Compound: Cc1nc2c(C)cccc2nc1Oc1cccnc1C(C)(C)C(=O)OC(C)C [Compound 1-61]
- control value [1]: ≥ 75%
- control value [2]: ≥ 75%

Compound: COC(C)(C)c1ncccc1Oc1nc2cccc(C)c2nc1C [Compound 1-62]
- control value [1]: ≥ 75%
- control value [2]: ≥ 75%

Compound: Cc1nc2ccccc2nc1Oc1cccnc1C(C)(C)C(=O)OC(C)C [Compound 1-63]
- control value [1]: ≥ 75%
- control value [2]: ≥ 75%

Compound: C=CCOC(C)(C)c1ncccc1Oc1nc2ccc(F)cc2nc1C [Compound 1-65]
- control value [1]: ≥ 75%
- control value [2]: ≥ 75%

Compound: COC(C)(C)c1ncccc1Oc1cnc2sccc2c1 [Compound 3-4]
- control value [2]: ≥ 75%

Compound: O=Cc1ncccc1Oc1cnc2c(F)cccc2c1 [a-3]
- control value [1]: ≥ 75%

Compound: CC(C)(C)c1nc2c(F)cccc2cc1Oc1cccnc1C=O [a-4]
- control value [1]: ≥ 75%

Compound: Cc1nc2c(F)cccc2cc1Oc1cccnc1C(C)(C)C#N [a-24]
- control value [2]: ≥ 75%

Compound: CC(=O)c1ncccc1Oc1cnc2c(F)c(F)ccc2c1 [a-27]
- control value [1]: ≥ 75%

Compound: Cc1nc2c(F)cccc2cc1Oc1cccnc1C(C)O (centres unmarked) [a-34]
- control value [1]: ≥ 75%

Compound: COC(C)c1ncccc1Oc1cc2cccc(F)c2nc1C (centres unmarked) [a-35]
- control value [1]: ≥ 75%

Compound: CON=C(C)c1ncccc1Oc1cc2cccc(F)c2nc1C [a-41]
- control value [1]: ≥ 75%

Compound: COCC(C)(C)c1ncccc1Oc1cnc2c(F)cccc2c1 [a-44]
- control value [1]: ≥ 75%

Compound: CCON=C(C)c1ncccc1Oc1cc2cccc(F)c2nc1C [a-52]
- control value [1]: ≥ 75%

Compound: CC(C)(C(=O)NCc1ccccc1)c1ncccc1Oc1cnc2c(O)cccc2c1 [a-53]
- control value [1]: ≥ 75%

Compound: CC(=O)c1ncccc1Oc1cc2cccc(Cl)c2nc1C [a-89]
- control value [1]: ≥ 75%

Compound: COC(C)(C)c1nc(Cl)ccc1Oc1cc2cccc(F)c2nc1C [a-101]
- control value [2]: ≥ 75%

Compound: COC(C)(C)c1nc(C)ccc1Oc1cc2cccc(F)c2nc1C [a-102]
- control value [2]: ≥ 75%

Compound: CC(C)(O)c1cccnc1Oc1cnc2ccccc2c1 [b-2]
- control value [1]: ≥ 75%

Compound: COC(C)(C)c1cccnc1Oc1cc2cccc(F)c2nc1C [b-5]
- control value [2]: ≥ 75%
